Test results taken from PubChem BioAssay AID1117319 (Southern Research Institute, 2015).
Among all 260,000 compounds or so, about 1,500 (0.58%) were called active. Inconclusive results, whose numbers are uncertain, are shown with a selection of clear calls.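 The calls were made as follows: active = inhibition above a set limit at one or more doses, reproduced on every date tested; inconclusive = results disagree between test dates, or hit never tested in dose response; inactive = the rest.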

Sequences of proteins named here, by UniProt entry; tags and fusion partners are left off. A change or cut given only in a name is not applied to a line headed by its entry.
UniProt P69720: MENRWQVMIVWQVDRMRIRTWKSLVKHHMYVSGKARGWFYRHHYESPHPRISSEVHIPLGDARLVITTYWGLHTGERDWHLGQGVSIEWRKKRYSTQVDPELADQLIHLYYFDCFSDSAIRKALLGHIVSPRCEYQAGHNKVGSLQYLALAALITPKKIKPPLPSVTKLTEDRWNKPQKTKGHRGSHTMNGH
UniProt P69721: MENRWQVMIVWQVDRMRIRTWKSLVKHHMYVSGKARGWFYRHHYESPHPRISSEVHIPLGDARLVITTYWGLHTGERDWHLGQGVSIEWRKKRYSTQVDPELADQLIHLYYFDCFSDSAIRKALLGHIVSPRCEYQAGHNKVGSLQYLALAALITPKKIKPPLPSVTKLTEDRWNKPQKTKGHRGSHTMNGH
UniProt P69722: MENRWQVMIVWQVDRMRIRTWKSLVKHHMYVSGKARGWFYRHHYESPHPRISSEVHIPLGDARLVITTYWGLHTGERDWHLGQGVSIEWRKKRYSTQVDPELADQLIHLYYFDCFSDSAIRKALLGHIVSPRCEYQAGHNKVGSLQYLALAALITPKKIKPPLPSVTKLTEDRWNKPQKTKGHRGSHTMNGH
UniProt P69723: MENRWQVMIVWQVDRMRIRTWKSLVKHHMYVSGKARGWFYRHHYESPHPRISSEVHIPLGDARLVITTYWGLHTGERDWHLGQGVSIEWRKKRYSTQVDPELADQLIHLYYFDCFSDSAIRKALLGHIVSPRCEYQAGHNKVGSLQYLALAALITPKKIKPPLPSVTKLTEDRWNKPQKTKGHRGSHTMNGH
UniProt Q9HC16: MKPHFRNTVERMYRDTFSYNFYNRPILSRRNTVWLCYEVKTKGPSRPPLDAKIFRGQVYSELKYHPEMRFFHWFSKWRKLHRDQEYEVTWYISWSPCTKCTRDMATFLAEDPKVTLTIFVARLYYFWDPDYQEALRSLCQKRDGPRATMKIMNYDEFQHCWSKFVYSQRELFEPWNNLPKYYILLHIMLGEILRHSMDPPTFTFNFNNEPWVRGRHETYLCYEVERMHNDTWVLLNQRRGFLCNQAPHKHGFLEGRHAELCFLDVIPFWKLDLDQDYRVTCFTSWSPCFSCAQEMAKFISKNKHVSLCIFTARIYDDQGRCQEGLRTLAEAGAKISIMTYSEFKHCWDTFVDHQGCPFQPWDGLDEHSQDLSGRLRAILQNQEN

These molecules were tested against Virion infectivity factor (Human immunodeficiency virus type 1 group M subtype B (isolate BH10)) + Virion infectivity factor (Human immunodeficiency virus type 1 group M subtype B (isolate BRU/LAI)) + Virion infectivity factor (Human immunodeficiency virus type 1 group M subtype B (isolate PCV12)) + Virion infectivity factor (Human immunodeficiency virus type 1 group M subtype B (isolate HXB2)) + DNA dC->dU-editing enzyme APOBEC-3G (Homo sapiens) (UniProt P69720+P69721+P69722+P69723+Q9HC16) (assay: inhibitors of Vif binding to APOBEC3G peptide, primary screen, biochemical, TR-FRET, GST-Vif 1-94, biotin-A3G peptide, dose response retest (AID 1117319;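 also: Vif residues 1-94 fused to GST binding biotinylated APOBEC3G peptide 110-148; 0% = full assay without inhibitor and 100% = GST in place of GST-Vif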)). Conditions: active compounds read high.

SMILES | inhibition
O=C1OCCC1Sc1nnc(-c2ccccc2)o1 (configuration not stated) | inconclusive: 34.5%
COc1ccc(C2N=C(c3ccccc3)C(C)(C)N2O)cc1 (configuration not stated) | inconclusive: 33.7%
Cc1ccc(C)c(-n2cc(CN3CCNC(=O)CC3)c(-c3ccccc3)n2)c1 | inconclusive: 61.4%
COc1ccc(Br)c2oc(S)cc(=O)c12 | inconclusive: 37.3%
Cc1cccc(NC(=S)NN2CCOCC2)c1C | inconclusive: 57.2%
O=C(c1coc(=O)c(Br)c1)N1CCOCC1 | inactive: 24.5%
CCOc1ccc(CC(=O)NNC(=S)Nc2ccccc2)cc1Br | inconclusive: 36.6%
Cc1c(C(=O)NCCc2ccc(Cl)cc2)sc2nc3n(c(=O)c12)CCC3 | inconclusive: 39.6%
CN(C)c1cc(O)c(C(=S)Nc2ccccc2)c(N(C)C)c1 | inconclusive: 56.9%
O=C1CC(SC(=Nc2ccccc2)Nc2ccccc2)C(=O)N1c1ccc(Cl)c(Cl)c1 (configuration not stated) | inconclusive: 49.9%
CCOc1ccc(-c2nc(CSCC(=O)N3CCN(c4cccc(OC)c4)CC3)c(C)o2)cc1 | inconclusive: 34%
Cc1cc(C)c(OCC(=O)Nc2cccc(NC(=O)c3ccco3)c2)c(Br)c1 | inconclusive: 44.2%
O=Cc1ccc(Oc2ncccn2)cc1 | inconclusive: 51.7%
O=C(NCCc1ccccc1Cl)c1cc(COc2ccc(F)cc2F)on1 | inactive: 2.92%
CN(C)c1nc(N)nc(/C(C#N)=C/C2CC3C=CC2C3)n1 (configuration not stated) | inconclusive: 40.2%
CC(Oc1ccccc1)C(=O)Nc1oc(-c2ccco2)c(-c2ccco2)c1C#N (configuration not stated) | inconclusive: 42.6%
CCOc1ccc(C2C(C#N)=C(N)N(c3sc4c(c3C#N)CCCC4)C3=C2C(=O)CCC3)cc1 (configuration not stated) | inconclusive: 57.6%
CCOc1ccc(CCNC(=O)CS(=O)Cc2nc(-c3ccc(C)cc3)oc2C)cc1 (configuration not stated) | inactive: 5.23%
Cc1ccc(C(=O)NCCc2ccc(S(N)(=O)=O)cc2)o1 | inconclusive: 64.5%
CCC(C)NCC(O)COCc1ccc(Cl)cc1 (configuration not stated) | inconclusive: 59.6%
CC(C)Cn1c(SCC(=O)c2ccc(Cl)s2)nnc1-c1ccco1 | inconclusive: 49.5%
CCOCc1nnc(NC(=O)CSCc2ccccc2)s1 | inconclusive: 58.6%
Cn1c(-c2ccc3ccccc3n2)[n+](C)c2ccccc21 | inconclusive: 35.7%

3 consecutive compounds from above, quoted:
SMILES | inhibition
CCOc1ccc(-c2nc(CSCC(=O)N3CCN(c4cccc(OC)c4)CC3)c(C)o2)cc1 | inconclusive: 34%
Cc1cc(C)c(OCC(=O)Nc2cccc(NC(=O)c3ccco3)c2)c(Br)c1 | inconclusive: 44.2%
O=Cc1ccc(Oc2ncccn2)cc1 | inconclusive: 51.7%

Additional entries follow:

SMILES | inhibition
Cc1ccc(-c2n[nH]c(=S)n2/N=C/c2cc3c(cc2[N+](=O)[O-])OCO3)cc1 | inconclusive: 59.7%
Cc1nc2ncnn2c(Nc2ccc3c(c2)OCO3)c1Cc1ccccc1 | inconclusive: 33.5%
O=C(OCC(=O)c1c[nH]c2ccccc12)c1ccc([N+](=O)[O-])s1 | inconclusive: 34.3%
Cc1ccc(C)c(OCc2nc(-c3cccnc3)no2)c1 | inconclusive: 59.6%
CC(C)c1ccc(NC(=O)c2csnn2)cc1 | inconclusive: 61.6%
Cn1c(=O)cc(OCCCC(=O)N2CCCCC2)c2ccccc21 | inconclusive: 33.6%
NC(=O)c1cccnc1 | inconclusive: 38.7%
O=C(COC(=O)Cc1ccccc1[N+](=O)[O-])NCc1ccccc1Cl | inconclusive: 38.5%
C=CCn1c(COc2ccccc2)nnc1SCC(=O)C(C)(C)C | inconclusive: 52.8%
CCOc1ccc(CCNC(=O)COC(=O)c2ccccc2O)cc1OCC | inconclusive: 49.9%
COc1ccc(S(=O)(=O)N2CCN(C(=O)C3COc4ccccc4O3)CC2)cc1 (configuration not stated) | inconclusive: 44.8%
Cc1cc[n+](CCC(=O)O)c2ccccc12 | inactive: 27.6%
CCOc1ccc2nc(N=NC3=C(O)CC(C)(C)CC3=O)sc2c1 | inconclusive: 42.7%
CN1CCN(C(=O)c2cnn3c(C(F)(F)F)cc(-c4ccc5c(c4)OCO5)nc23)CC1 | inconclusive: 40.5%
O=C(Cc1n[nH]c(=O)[nH]c1=O)N/N=C/c1c(O)ccc2ccccc12 | inconclusive: 36.1%
COc1ccc(Cc2nnc(NC(=O)Cc3cccs3)s2)cc1 | inconclusive: 41%
COc1ccc(N2C(=O)C3CCCN3C2c2ccccc2)cc1Cl (configuration not stated) | inconclusive: 47.2%
COc1ccccc1NC(=O)N1CCN(c2ccccn2)CC1 | inconclusive: 36.7%
Cc1oc2ccc(O)c(CN(C)C)c2c1C(=O)c1ccccc1 | inconclusive: 60.5%
Cc1ccccc1OCCOc1ccc([N+](=O)[O-])cc1/C=N/n1cnnc1 | inconclusive: 37.3%
C(=N\Nc1nc(-c2ccccc2)cs1)/c1cccnc1 | inconclusive: 34.4%
Cc1ccccc1C(=O)Nc1ccc2c(C#N)c3nc4ccccc4nc3n2c1 | inconclusive: 61.7%
O=S(=O)(Nc1ccc(N2CCOCC2)cc1)c1ccc(F)cc1F | inconclusive: 33.8%

SMILES | inhibition
CC(=O)Nc1cccc(-c2cn3ccccc3n2)c1 | inconclusive: 38.6%
O=C(NC1CCCCC1)C1CC(O)CN1C(=O)OCc1ccccc1 (configuration not stated) | inconclusive: 11.8%
Cc1onc(-c2c(F)cccc2Cl)c1C(=O)Nc1nccs1 | inactive: -2.44%
Cc1ccc(NC(=O)CSC2=Nc3ccccc3C3CC=NN23)c(C)c1 (configuration not stated) | inconclusive: 34.5%
Oc1ccc(Nc2nc3ccccc3nc2Nc2ccc(O)cc2)cc1 | inconclusive: 39.6%
Cc1cc(=O)oc2cc(OC(C)C(=O)N3CCCc4ccccc43)ccc12 (configuration not stated) | inconclusive: 34.2%
CCc1ccccc1NC(=O)CCS(=O)(=O)c1ccc(Br)cc1 | inconclusive: 33.7%
CCCCC(=Nc1ccc(N)cc1)C1=C(O)C(C(=O)OC)C(C)(C)CC1=O (configuration not stated) | inconclusive: 54.4%
O=C(Nc1ccc2nc(-c3cccs3)[nH]c2c1)c1cccs1 | inconclusive: 38.6%
O=C(CC1C(=O)NCCN1Cc1ccc(-c2ccccc2)cc1)NCCCn1ccnc1 (configuration not stated) | inconclusive: 39.4%
Cc1ccccc1C(C(=O)NC1CCCC1)N(C(=O)Cc1cccs1)c1ccc2c(c1)OCCO2 (configuration not stated) | inconclusive: 33.8%
O=C(C1CCCO1)N1CCC(O)(c2ccccc2)CC1 (configuration not stated) | inactive: -9.62%
CCOc1cc(C(c2c(C)[nH][nH]c2=O)c2c(C)[nH][nH]c2=O)ccc1OCc1ccc([N+](=O)[O-])cc1 | inconclusive: 52.8%
Cc1cc(Cl)ccc1N1C(=O)CC(SCCC(=O)O)C1=O (configuration not stated) | inconclusive: 36.1%
N#C/C(=C(/O)COc1cccc2ccccc12)c1nc2ccccc2[nH]1 | inconclusive: 40.9%
Cc1ccc(Cl)cc1NC(=S)N(Cc1ccccc1)Cc1cccnc1 | inconclusive: 45.4%
COc1ccc(-c2nn(C)c(=O)c3ccccc23)cc1CNC(=O)c1ccco1 | inconclusive: 33%
Cc1ccc(-c2nc3ncccc3o2)cc1NC(=O)CC(C)C | inconclusive: 41.9%
O=C(O)c1ccccc1N=N/C(=N/Nc1cc(S(=O)(=O)O)ccc1O)c1ccccc1 | inconclusive: 40.8%
CCNS(=O)(=O)c1ccc(CCC(=O)O)cc1 | inactive: -1.11%
Cc1cc(NC(=O)c2ccc(Cl)cc2)c(C)cc1O | inactive: -1.13%
CCOC(=O)C1(CC)NC(c2ccco2)C2C(=O)N(CC)C(=O)C21 (configuration not stated) | inactive: 0.75%
COc1ccc2c(c1OC)C(=O)OC2CC(=O)c1ccc2c(c1)OCO2 (configuration not stated) | inactive: -2.78%

A second format for some results above:

| SMILES | inhibition |
| --- | --- |
| O=C(Nc1ccc2nc(-c3cccs3)[nH]c2c1)c1cccs1 | inconclusive: 38.6% |
| O=C(CC1C(=O)NCCN1Cc1ccc(-c2ccccc2)cc1)NCCCn1ccnc1 (configuration not stated) | inconclusive: 39.4% |
| COc1ccc(-c2nn(C)c(=O)c3ccccc23)cc1CNC(=O)c1ccco1 | inconclusive: 33% |
| Cc1cc(NC(=O)c2ccc(Cl)cc2)c(C)cc1O | inactive: -1.13% |

Additional records follow.

SMILES | inhibition
CCCCn1c(SCC(=O)Nc2cc(C)on2)nnc1-c1cccnc1 | inactive: -3.02%
COc1cccc(CC2(CO)CCN(Cc3cccn3-c3cccnc3)CC2)c1 | inconclusive: 51.5%
O=C(Nc1ccc(O)cc1)C1CC=CCC1 (configuration not stated) | inconclusive: 39.8%
Cc1ccccc1N1CCN(c2ncnc3c2cnn3Cc2ccc(Cl)cc2)CC1 | inconclusive: 39%
OCCC1CN(Cc2ccccc2-c2ccco2)CCN1Cc1ccccc1 (configuration not stated) | inactive: 15.2%
COc1cccc(OCC(O)CN2CCN(c3ccc(Cl)cc3)CC2)c1 (configuration not stated) | inactive: 2.34%
O=C(O)COc1ccc(Nc2ccccc2)cc1 | inconclusive: 57.5%
CCSC1=C(C#N)C(c2ccc3c(c2)OCO3)C2=C(CCCC2=O)N1 (configuration not stated) | inconclusive: 33.5%
COCCCNC(=O)CN(c1cccc(Cl)c1C)S(C)(=O)=O | inconclusive: 33.8%
CC(C)Cc1nc(C#N)c(N2CCC(C(N)=O)CC2)o1 | inconclusive: 38.1%
O=C(Nc1nc2ccc([N+](=O)[O-])cc2s1)c1ccncc1 | inconclusive: 48.1%
CCC(=O)Nc1c(C)nn(C(=O)CC)c1C | inconclusive: 30.6%
CCOc1ccc(S(=O)(=O)NCCCN2CCOCC2)c2ccccc12 | inconclusive: 37.1%
Cc1nnc(SCC2=C(C(=O)O)N3C(=O)C(NC(=O)Cc4ccccc4)C3SC2)s1 (configuration not stated) | inactive: 7.27%
O=C1CCCC/C1=C\Nc1ccc(O)cc1 | inconclusive: 54%
COc1cccc(/C=N/NC(=O)C(=O)Nc2ccccc2OC(F)(F)C(F)F)c1O | inconclusive: 44.2%
Cc1ccc(-c2nn(Cc3ccccc3)cc2/C=C/C(=O)O)cc1C | inactive: -3.26%
COc1ccc(CC(=O)NNC(=O)c2cc(C)[nH]n2)cc1 | inconclusive: 40.6%
CSc1nc2c(c(=O)[nH]1)C(c1cccs1)C1=C(CCCC1=O)N2 (configuration not stated) | inconclusive: 40.1%
Cc1cc(Oc2ccc(=O)n(C)n2)nc(Oc2ccc(=O)n(C)n2)n1 | inconclusive: 33.9%
CN(C)S(=O)(=O)c1ccc(Cl)c(NC(=O)CN2C(=O)NC3(CCCC3)C2=O)c1 | inconclusive: 54.5%
C=C(C)CNC(=S)NNC(=O)c1ccncc1 | inactive: -3.17%
COc1ccc(C(=O)NCc2cccs2)cc1S(=O)(=O)N1CCOCC1 | inconclusive: 51.8%
